Source: patent US20210403591A1
Results are given in words; binding and its absence hold for the method and conditions named. Some results given as binding are weak or reduced against the parent protein; the word gives no strength. For some assays here: Where a sequence is shown, tags or fusion partners need not be part of it.

By UniProt entry, the sequences of proteins in these tests, tags left out. Where a name states a change or a piece, a line headed by the entry shows the natural chain unless it says otherwise. Chains listed by the source or under a name are the forms on record and can include a tag or linker. Residues count along the entry.
purified WT mTfR-1 (ELISA coat) (Q62351, residues 89-763): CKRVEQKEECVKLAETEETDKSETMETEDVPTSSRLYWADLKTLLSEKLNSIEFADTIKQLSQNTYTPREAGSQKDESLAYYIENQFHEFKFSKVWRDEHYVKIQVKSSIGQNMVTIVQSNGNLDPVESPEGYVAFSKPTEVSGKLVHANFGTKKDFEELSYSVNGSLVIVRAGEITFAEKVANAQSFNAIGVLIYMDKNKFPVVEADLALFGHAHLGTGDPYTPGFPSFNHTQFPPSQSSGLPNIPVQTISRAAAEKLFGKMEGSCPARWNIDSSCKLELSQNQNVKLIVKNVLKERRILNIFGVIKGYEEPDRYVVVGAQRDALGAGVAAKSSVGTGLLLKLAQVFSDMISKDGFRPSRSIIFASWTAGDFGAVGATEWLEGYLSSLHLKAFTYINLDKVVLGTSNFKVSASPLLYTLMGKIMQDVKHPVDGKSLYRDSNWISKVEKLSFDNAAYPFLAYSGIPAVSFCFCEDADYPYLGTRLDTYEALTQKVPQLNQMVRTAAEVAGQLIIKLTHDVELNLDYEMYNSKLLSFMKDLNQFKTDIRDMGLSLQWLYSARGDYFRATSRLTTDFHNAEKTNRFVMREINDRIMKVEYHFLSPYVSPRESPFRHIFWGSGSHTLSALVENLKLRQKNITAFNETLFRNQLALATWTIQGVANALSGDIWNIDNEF
purified mTfR1 mutant M3 (NGA) (Q62351, form named): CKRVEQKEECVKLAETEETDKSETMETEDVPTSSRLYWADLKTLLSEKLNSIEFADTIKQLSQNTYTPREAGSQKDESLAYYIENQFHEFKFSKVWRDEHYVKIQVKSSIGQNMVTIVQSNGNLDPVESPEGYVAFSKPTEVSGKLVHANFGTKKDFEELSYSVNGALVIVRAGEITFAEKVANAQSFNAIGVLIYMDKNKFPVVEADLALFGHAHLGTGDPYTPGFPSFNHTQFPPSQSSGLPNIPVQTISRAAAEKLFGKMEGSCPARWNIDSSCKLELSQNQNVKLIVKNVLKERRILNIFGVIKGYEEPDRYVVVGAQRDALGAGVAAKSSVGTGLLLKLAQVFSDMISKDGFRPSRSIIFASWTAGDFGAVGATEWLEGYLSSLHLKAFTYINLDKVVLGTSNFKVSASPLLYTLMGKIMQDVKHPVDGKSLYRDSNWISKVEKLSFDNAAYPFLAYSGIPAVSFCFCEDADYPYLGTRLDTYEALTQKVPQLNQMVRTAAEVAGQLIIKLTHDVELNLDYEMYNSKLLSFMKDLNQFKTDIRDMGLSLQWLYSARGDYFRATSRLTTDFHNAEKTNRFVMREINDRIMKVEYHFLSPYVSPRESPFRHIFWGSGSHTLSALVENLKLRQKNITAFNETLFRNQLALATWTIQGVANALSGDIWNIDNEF
purified mTfR1 mutant M1 (AGS) (Q62351, form named): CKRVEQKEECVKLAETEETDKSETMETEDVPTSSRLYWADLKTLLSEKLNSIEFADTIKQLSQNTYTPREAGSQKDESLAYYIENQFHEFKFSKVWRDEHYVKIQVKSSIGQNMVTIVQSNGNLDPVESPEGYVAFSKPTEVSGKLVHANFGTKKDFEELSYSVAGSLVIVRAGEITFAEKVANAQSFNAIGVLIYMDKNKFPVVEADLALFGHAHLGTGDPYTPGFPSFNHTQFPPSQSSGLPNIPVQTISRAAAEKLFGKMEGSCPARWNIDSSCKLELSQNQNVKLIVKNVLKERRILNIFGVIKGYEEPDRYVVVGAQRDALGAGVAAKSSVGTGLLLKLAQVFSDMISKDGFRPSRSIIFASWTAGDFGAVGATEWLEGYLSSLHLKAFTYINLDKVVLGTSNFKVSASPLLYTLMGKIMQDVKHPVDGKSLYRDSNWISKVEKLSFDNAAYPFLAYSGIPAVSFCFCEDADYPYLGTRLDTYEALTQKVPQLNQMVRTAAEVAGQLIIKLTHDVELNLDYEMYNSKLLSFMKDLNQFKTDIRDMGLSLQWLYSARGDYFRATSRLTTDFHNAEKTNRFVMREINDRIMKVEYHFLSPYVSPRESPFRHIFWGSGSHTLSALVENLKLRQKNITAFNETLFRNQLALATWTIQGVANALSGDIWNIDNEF
purified mTfR1 mutant M2 (NAS) (Q62351, form named): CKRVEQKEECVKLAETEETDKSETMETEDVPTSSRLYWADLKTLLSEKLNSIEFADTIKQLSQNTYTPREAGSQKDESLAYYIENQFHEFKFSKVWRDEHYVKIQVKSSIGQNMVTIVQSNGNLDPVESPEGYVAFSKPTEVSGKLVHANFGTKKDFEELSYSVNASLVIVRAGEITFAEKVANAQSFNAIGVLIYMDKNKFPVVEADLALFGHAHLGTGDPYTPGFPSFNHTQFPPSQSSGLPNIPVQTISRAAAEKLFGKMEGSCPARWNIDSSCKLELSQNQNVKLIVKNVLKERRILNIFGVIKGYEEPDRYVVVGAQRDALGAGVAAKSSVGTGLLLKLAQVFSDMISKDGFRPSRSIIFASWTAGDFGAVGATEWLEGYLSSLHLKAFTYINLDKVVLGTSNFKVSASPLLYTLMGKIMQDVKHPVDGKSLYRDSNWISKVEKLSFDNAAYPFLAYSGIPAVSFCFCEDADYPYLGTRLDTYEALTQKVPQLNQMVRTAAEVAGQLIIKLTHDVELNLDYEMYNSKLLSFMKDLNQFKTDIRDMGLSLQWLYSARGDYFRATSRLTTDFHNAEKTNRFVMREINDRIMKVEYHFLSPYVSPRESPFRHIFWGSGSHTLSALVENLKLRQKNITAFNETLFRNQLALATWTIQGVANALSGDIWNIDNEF

Legend:
[1] = molecular target: purified mTfR1 mutant M3 (NGA) (mouse) (UniProt Q62351); test: ELISA, coated purified mTfR-1
[2] = molecular target: purified mTfR1 mutant M3 (NGA) (mouse) (UniProt Q62351); test: ELISA, plate coated with purified mTfR-1 mutant M3 (NGA), serial dilution of the binder; y axis Norm. Vmax OD at 650nm
[3] = molecular target: purified mTfR1 mutant M1 (AGS) (mouse) (UniProt Q62351); test: ELISA, plate coated with purified mTfR-1 mutant M1 (AGS), serial dilution of the VNAR-hFc; y axis Norm. Vmax OD at 650nm
[4] = molecular target: purified mTfR1 mutant M1 (AGS) (mouse) (UniProt Q62351); test: ELISA, coated purified mTfR-1
[5] = molecular target: purified mTfR1 mutant M2 (NAS) (mouse) (UniProt Q62351); test: ELISA, coated purified mTfR-1
[6] = molecular target: purified WT mTfR-1 (ELISA coat) (mouse) (UniProt Q62351); test: ELISA, plate coated with purified WT mTfR-1, serial dilution of the VNAR-hFc; y axis Norm. Vmax OD at 650nm
[7] = molecular target: purified mTfR1 mutant M3 (NGA) (mouse) (UniProt Q62351); test: ELISA, plate coated with purified mTfR-1 mutant M3 (NGA), serial dilution of the VNAR-hFc; y axis Norm. Vmax OD at 650nm
[8] = molecular target: purified mTfR1 mutant M2 (NAS) (mouse) (UniProt Q62351); test: ELISA, plate coated with purified mTfR-1 mutant M2 (NAS), serial dilution of the VNAR-hFc; y axis Norm. Vmax OD at 650nm

Measured: binding

B1: Clone C VNAR-hFc fusion (Fc fusion, not shown: a dimerising Fc or GST)
chain: ARVDQTPQTITKETGESLTINCVLRDSNCALSSTYWYRKKSGSTNEENISKGGRYVETVNSGSKSFSLRINDLTVEDSGTYRCNVVQYPSYNNYFWCDVYGDGTAVTVN
binds: [1] | [2]

B2: Clone C variant 18 VNAR-hFc (Fc fusion, not shown: a dimerising Fc or GST)
chain: ARVDQTPQTITKETGESLTINCVLRDSNCALSSTYWYRKKSGSTNEENISKGGRYVETVNSGSKSFSLRINDLTVEDSGTYRCNVVQYPQYPNYFWCDVYGDGTAVTVN
not listed: [2]
binds: all other assays above

B3: Clone C variant 13 VNAR-hFc (Fc fusion, not shown: a dimerising Fc or GST)
chain: ARVDQTPQTITKETGESLTINCVLRDSNCALSSTYWYRKKSGSTNEENISKGGRYVETVNSGSKSFSLRINDLTVEDSGTYRCNVVQYPQQDNYFWCDVYGDGTAVTVN
not listed: [2]
binds: all other assays above

B4: Clone H VNAR-hFc fusion (Fc fusion, not shown: a dimerising Fc or GST)
chain: ARVDQTPQTITKETGESLTINCVLRDSNCELSSTYWYRKKSGSTNEESISKGGRYVETVNSGSKSFSLRINDLVVEDSGTYRCNVQQFPSSSNGRYWCDVYGGGTAVTVNA
binds: [3] | [1] | [4] | [6] | [7]

B5: Clone H variant 10 VNAR-hFc (Fc fusion, not shown: a dimerising Fc or GST)
chain: ARVDQTPQTITKETGESLTINCVLRDSNCELSSTYWYRKKSGSTNEESISKGGRYVETVNSGSKSFSLRINDLVVEDSGTYRCNVQQFPSWFNGRYWCDVYGGGTAVTVNA
not listed: [2]
binds: all other assays above

B6: Clone H variant 1 VNAR-hFc (Fc fusion, not shown: a dimerising Fc or GST)
chain: ARVDQTPQTITKETGESLTINCVLRDSNCELSSTYWYRKKSGSTNEESISKGGRYVETVNSGSKSFSLRINDLVVEDSGTYRCNVVQWPSSSNGRYWCDVYGGGTAVTVNA
not listed: [2]
binds: all other assays above
